Data as given in patent US20110172097A1, “Imidazole and Triazole Compounds, Their Use and Agents Containing The Same” (BASF SE, priority 2008, published 2011).
Some entries share one result that the patent states for a list of compounds.

Key:
[1] = system: Septoria tritici; assay: Example M1 - Activity against the Septoria leaf spot pathogen Septoria tritici in the microtiter test; format: cell-based; conditions: 31 ppm, day 7, 405 nm, active compound-free control = 100%
[2] = system: Leptosphaeria nodorum; assay: Example M2 - Activity against the glume blotch pathogen Leptosphaeria nodorum in the microtiter test (Leptno); format: cell-based; conditions: 31 ppm, day 7, 405 nm

Compound	relative growth in % of the pathogen [1]	relative growth in % of the pathogen [2]
CC(C)(CCCC(C(O)C(C)(C)C)n1cncn1)c1ccccc1 (centres unmarked) [I.A1a, 2,2,8-trimethyl-8-phenyl-4-[1,2,4]triazol-1-ylnonan-3-ol]	at most 14%	–
CC(C)(CCCC(C(O)C(C)(C)C)n1cncn1)c1ccc(F)cc1 (centres unmarked) [I.A4, 2,2,8-trimethyl-8-(4-fluorophenyl)-4-[1,2,4]triazol-1-ylnonan-3-ol]	at most 14%	at most 10%
CC(C)(C)C(O)C(CCCCc1ccc(F)cc1)n1cncn1 (centres unmarked) [I.A5a, 8-(4-fluorophenyl)-2,2-dimethyl-4-[1,2,4]triazol-1-yloctan-3-ol]	at most 14%	at most 10%
